Test results taken from PMC9950432.
These are yes or no findings as the source states them, for the method shown. Binding calls can cover weak binding; strength is not graded here. Tags and fused reporters may be left off the sequences shown.

Biological target: human PD-L1/CD274-glutathione-S-transferase (GST) fusion protein (human)
Assay: pull-down; GST pull-down with the Pierce GST Protein Interaction Pull-Down Kit; recombinant GST-PD-L1 as bait, USP8-His as prey, recombinant human GST as control; both purified

binding: binds
B1: human USP8-6*His fusion protein (enzyme, UniProt P40818 1-1118)
chain: MPAVASVPKELYLSSSLKDLNKKTEVKPEKISTKSYVHSALKIFKTAEECRLDRDEERAYVLYMKYVTVYNLIKKRPDFKQQQDYFHSILGPGNIKKAVEEAERLSESLKLRYEEAEVRKKLEEKDRQEEAQRLQQKRQETGREDGGTLAKGSLENVLDSKDKTQKSNGEKNEKCETKEKGAITAKELYTMMTDKNISLIIMDARRMQDYQDSCILHSLSVPEEAISPGVTASWIEAHLPDDSKDTWKKRGNVEYVVLLDWFSSAKDLQIGTTLRSLKDALFKWESKTVLRNEPLVLEGGYENWLLCYPQYTTNAKVTPPPRRQNEEVSISLDFTYPSLEESIPSKPAAQTPPASIEVDENIELISGQNERMGPLNISTPVEPVAASKSDVSPIIQPVPSIKNVPQIDRTKKPAVKLPEEHRIKSESTNHEQQSPQSGKVIPDRSTKPVVFSPTLMLTDEEKARIHAETALLMEKNKQEKELRERQQEEQKEKLRKEEQEQKAKKKQEAEENEITEKQQKAKEEMEKKESEQAKKEDKETSAKRGKEITGVKRQSKSEHETSDAKKSVEDRGKRCPTPEIQKKSTGDVPHTSVTGDSGSGKPFKIKGQPESGILRTGTFREDTDDTERNKAQREPLTRARSEEMGRIVPGLPSGWAKFLDPITGTFRYYHSPTNTVHMYPPEMAPSSAPPSTPPTHKAKPQIPAERDREPSKLKRSYSSPDITQAIQEEEKRKPTVTPTVNRENKPTCYPKAEISRLSASQIRNLNPVFGGSGPALTGLRNLGNTCYMNSILQCLCNAPHLADYFNRNCYQDDINRSNLLGHKGEVAEEFGIIMKALWTGQYRYISPKDFKITIGKINDQFAGYSQQDSQELLLFLMDGLHEDLNKADNRKRYKEENNDHLDDFKAAEHAWQKHKQLNESIIVALFQGQFKSTVQCLTCHKKSRTFEAFMYLSLPLASTSKCTLQDCLRLFSKEEKLTDNNRFYCSHCRARRDSLKKIEIWKLPPVLLVHLKRFSYDGRWKQKLQTSVDFPLENLDLSQYVIGPKNNLKKYNLFSVSNHYGGLDGGHYTAYCKNAARQRWFKFDDHEVSDISVSSVKSSAAYILFYTSLGPRVTDVAT
